{"source": "patent US11078157B1", "about": "“Compound embodiments that release H2S by reaction with a reactive compound and methods of making and using the same” (University of Oregon, priority 2018, dated 2021)", "test": "Reaction product analysis (preparative isolation and HPLC)", "type": "physicochemical", "settings": "100 μM donor", "method": "Compound 604a (0.39 mmol, 1.0 equivalents) was dissolved in 15 mL of 2:1 THF/PBS (10 mM, pH 7.4). L-cysteine methyl ester hydrochloride (1.17 mmol, 3.0 equivalents) was added in a single portion and stirred at room temperature for 2 hours. The reaction mixture was diluted with deionized H2O (˜20 mL) and extracted with CH2Cl2 (3×20 mL). The combined organic extracts were washed with brine and dried over MgSO4. After filtration, the solvent was removed under reduced pressure, and the purified by preparative thin layer chromatography (1:1 CH2Cl2 in hexanes). Compound 604a Rf=0.75 (63.6 mg, 76%) and CysDHT Rf=0.03 (11.0 mg, 13%) were isolated and characterized by ^1H and ^13C{^1H} NMR spectroscopy. The significant recovery of compound 604a is likely due to the lack of buffering capacity in the preparative-scale reaction.\nTo a 20 mL solution of 10% THF in PBS (10 mM, pH 7.4) containing 2 mM L-cysteine methyl ester (20 equivalents), 20 μL of 100 mM compound 604a in THF was added and stirred at room temperature. After 1 hour, a 1 mL reaction aliquot was analyzed by HPLC. HPLC analysis was performed on an Agilent 1260 HPLC instrument with a Poroshell 120 EC-C18 4.6×100 mm column and monitored at 280 nm. […] The concentration of CysDHT and phenol present at the end of the reaction were determined by measurement against calibration curves for each compound (see FIG. 4). […]"}
{"smiles": "S=C(Oc1ccccc1)c1ccccc1", "note": "[compound 604a, O-Phenyl benzothioate]", "values": [{"measurement": "concentration of CysDHT after 1 hour", "setting": "20 equivalents of cysteine, HPLC", "value": "~64", "unit": "µM"}]}
{"smiles": "S=C(Sc1ccccc1)c1ccccc1", "note": "[compound 506a]", "values": [{"measurement": "formation of the expected dihydrothiazole, yield by HPLC", "setting": "L-cysteine methyl ester 2 mM (20 equivalents), aliquot after 1 hour", "value": "~61", "unit": "%"}]}
